The record followed here is PubChem BioAssay AID2685 (National Center for Advancing Translational Sciences (NCATS), 2010).

A short description of this assay: qHTS Assay for Lipid Storage Modulators in Drosophila S3 Cells.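 On cell number change: cells counted by Cell Tracker Red CMTPX staining in the red channel.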 As to conditions: BODIPY lipid droplet fluorescence, 18-24 h; for cell number change: measured here: cell count max response, cells fed with added oleic acid. Put shortly:
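Laser-scanning cytometry quantifies lipid droplet accumulation (500–530 nm total intensity; droplet/cell object ratio) in oleic acid-fed (400 uM added) Drosophila S3 cells treated with a concentration series. 20 uM Triacsin C defined 100% inhibition.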

The mark [1] stands for this setting: measured here: lipid fluorescence (Fed channel) AC50, cells fed with added oleic acid.
[2] abbreviates: measured here: cell number channel AC50, cells fed with added oleic acid.

SMILES strings stand for the structures. The list shows a part of the results. Further columns of the screen follow, without active or inactive calls. Compounds called inactive in the main read-out are mostly missing here. Words in brackets tell the shape of the fitted curve; partial curves, single points and poor fits give uncertain potencies.

Regarding `CC(=O)c1ccc2noc(-c3ccccc3)c2c1`, the cell number change is -20.8%. For the same compound, under setting [1], the AC50 is 25.9 µM [falling, partial curve, poor fit].
With `Cc1ccc(OCC(=O)Nc2ccc(S(=O)(=O)Nc3cc(C)nc(C)n3)cc2)c(C)c1`, the cell number change stood at 6.83%.
On to `COc1cc(NC(=O)c2cc(-c3cccnc3)nc3ccc(C)cc23)c(OC)cc1Cl`, for which the cell number change is 69.8%. Also, the concentration at half-maximal activity (AC50) under setting [2] is 18.4 µM [rising, single point]. The concentration at half-maximal activity (AC50) under setting [1] is 0.58 µM [rising, single point].
As to `O=C(CSS(=O)(=O)O)N1CCN(C(=O)c2ccoc2)CC1`, the cell number change is 1.15%.
Turning to `O=C(Nc1ncc2c(n1)CC(c1ccco1)CC2=O)c1ccc(Cl)cc1` (configuration not stated), the cell number change was 9.5%. Also, under setting [1], the half-maximal activity concentration (AC50) is 20.6 µM [rising, single point].
In the case of `C#Cc1cccc(NC(=O)C2CCN(C(C)=O)CC2)c1`, the cell number change worked out at 16.6%. Besides, the concentration at half-maximal activity (AC50) under setting [1] was 11.6 µM [rising, partial curve].
For `CN(CC(=O)Nc1ccccc1Cl)C(=O)CSc1nnc(-c2ccco2)n1C`, under setting [1], the AC50 was 6.51 µM [rising, single point].
In the case of `Cc1oc(-c2ccoc2)nc1CN(CC1CCC(=O)N1)C(C)C` (configuration not stated), the cell number change is 34.1%. Further, the AC50 under setting [2] was 0.00517 µM [rising, full curve, poor fit]. In addition, under setting [1], the half-maximal activity concentration (AC50) is 29.1 µM [rising, single point].
On to `CCOC(=O)Cc1csc(NC(=O)CSc2nc(-c3ccccc3)c(C#N)c(=O)[nH]2)n1`, for which the cell number change is -37.7%. The AC50 under setting [2] is 20.6 µM [falling, single point]. Further, the half-maximal activity concentration (AC50) under setting [1] is 29.1 µM [falling, single point].
Consider `O=S(=O)(c1ccc2c(c1)OCCO2)N(Cc1ccc(F)cc1)Cc1nnc(-c2cccs2)o1`, for which the half-maximal activity concentration (AC50) by setting is: under setting [2], 0.58 µM [rising, single point]; under setting [1], 0.58 µM [rising, single point].
`Cc1nc(-c2ccccc2)sc1-c1nc(-c2ccccc2)ncc1S(=O)(=O)c1ccccc1`: the cell number change was determined as 11.8%. Moreover, the half-maximal activity concentration (AC50) under setting [1] was 16.4 µM [rising, single point].
Regarding `CC1CCCCN1S(=O)(=O)c1ccc(NC(=O)CSc2nnnn2C)cc1` (configuration not stated), the cell number change stood at 3.55%.
Consider `CN=C1S/C(=C\c2cc(C)n(-c3ccccc3F)c2C)C(=O)N1C`, for which, under setting [1], the concentration at half-maximal activity (AC50) was 29.1 µM [falling, single point].
As for `Cc1cccc(NC(=O)CSc2nnc(-c3ccco3)o2)c1`, the cell number change is 47.2%. In addition, the AC50 under setting [2] is 3.26 µM [rising, full curve]. Besides, the AC50 under setting [1] is 4.61 µM [rising, single point].
Take `Clc1ccc(Nc2ncn[nH]2)c(Cl)c1`: the cell number change was -36.8%. In addition, under setting [2], the half-maximal activity concentration (AC50) is 0.092 µM [falling, full curve]. For the same compound, the AC50 under setting [1] is 1.46 µM [falling, full curve].
With `O=C(Nc1ccccc1)N(Cc1cccs1)C1CCCC1`, the cell number change was 8.6%. Besides, the AC50 under setting [1] was 11.6 µM [rising, single point].
On to `Cc1cccc(N=C2C(=O)Nc3c(Cl)cccc32)c1`, for which the cell number change was -13%.
For the compound `CCOCCCNC(=S)N1C2CCC1CC(NC(=O)NC1CCCCC1)C2` (configuration not stated), the cell number change is 6.41%. Further, the AC50 under setting [2] is 5.17 µM [falling, partial curve]. Further, the AC50 under setting [1] is 0.13 µM [falling, full curve, poor fit].
Consider `O=c1oc2ccccc2c(O)c1CN1CCCCC1`, for which the cell number change was determined as 12.3%. Under setting [1], the AC50 was 0.116 µM [rising, single point].
Regarding `CC(=O)CNc1ccc(S(=O)(=O)N/N=C/c2ccccc2)cc1`, the cell number change was found to be 10.4%.
In the case of `COCC(=O)Nc1ccc(S(=O)(=O)Nc2ccccn2)cc1`, the cell number change is -38.1%. Moreover, the half-maximal activity concentration (AC50) under setting [2] was 0.731 µM [falling, full curve]. Also, under setting [1], the concentration at half-maximal activity (AC50) was 0.13 µM [falling, full curve, poor fit].
Take `CC(C)(C)c1ccc(OCC(=O)NCCN2CCOCC2)cc1`: the cell number change is -21.1%. For the same compound, the concentration at half-maximal activity (AC50) under setting [1] was 0.1 µM [rising, full curve, poor fit].
Take `COc1ccc(CCNC(=O)c2cc3c(=O)n4cccc(C)c4nc3n(CCCN3CCOCC3)c2=N)cc1`: the cell number change was -15.9%. Moreover, under setting [1], the half-maximal activity concentration (AC50) was 0.651 µM [falling, full curve].
Regarding `Cc1cc(C)cc(NC(=O)C(=O)NCc2ccccn2)c1`, the cell number change is 8.76%.
Take `O=C(CC1NC2CCCCC2NC1=O)Nc1cccc(C(F)(F)F)c1` (configuration not stated): the cell number change was -32.5%. Moreover, the concentration at half-maximal activity (AC50) under setting [2] is 0.731 µM [falling, full curve].
As to `N#CC(c1ccccn1)c1ncc(C(F)(F)F)cc1Cl` (configuration not stated), the cell number change was found to be 32.6%. Also, under setting [2], the AC50 is 18.4 µM [rising, single point]. Also, under setting [1], the AC50 was 20.6 µM [rising, partial curve].
In the case of `CCN1CCCC1CN(Cc1cc2ccc(C)c(C)c2[nH]c1=O)C(=O)Nc1ccccc1OC` (configuration not stated), the cell number change was determined as 12.5%. Further, the concentration at half-maximal activity (AC50) under setting [1] is 6.51 µM [falling, single point].
Turning to `Cc1ccc(NC(=S)N(C)N)cc1Cl`, the cell number change was 40.8%. For the same compound, the AC50 under setting [2] is 9.2 µM [rising, partial curve].
Take `CCOc1ccc(C(=O)Nc2ccc(S(=O)(=O)N3CCOCC3)cc2)cc1OCC`: the cell number change was -8.18%.
Take `Cc1nn(C)c(C)c1NC(=O)Nc1ccc(Cl)c(Cl)c1`: the cell number change was -23.6%. Further, the AC50 under setting [2] was 3.26 µM [falling, single point]. Further, the AC50 under setting [1] was 2.59 µM [falling, full curve].
With `COC(=O)C(C)N=Cc1ccccc1` (configuration not stated), the cell number change is -16.3%. For the same compound, the AC50 under setting [2] is 0.58 µM [falling, full curve]. The concentration at half-maximal activity (AC50) under setting [1] was 0.651 µM [falling, partial curve, poor fit].
Turning to `Cc1cccc(OCc2occc2C(=O)Nc2cccc(-n3cnnn3)c2)c1`, the cell number change was -11.5%. For the same compound, the AC50 under setting [1] is 0.58 µM [falling, single point].
On to `O=C(CN1CCN(Cc2ccccc2F)C1=O)NCCN1CCOCC1`, for which the cell number change amounted to 35.4%. Besides, the AC50 under setting [2] is 14.6 µM [rising, partial curve, poor fit]. The AC50 under setting [1] was 18.4 µM [rising, partial curve].
For the compound `CCOC(=O)C1CCCN(c2c(Nc3ccc(C)c(C)c3)c(=O)c2=O)C1` (configuration not stated), the cell number change worked out at 59%. Under setting [2], the AC50 was 8.2 µM [rising, partial curve]. Under setting [1], the half-maximal activity concentration (AC50) is 8.2 µM [rising, partial curve].
Turning to `Cc1cccc(OCC(=O)N/N=C\c2cn(C)c3ccccc23)c1`, the cell number change is -63%. In addition, the AC50 under setting [2] was 20.6 µM [falling, single point]. The concentration at half-maximal activity (AC50) under setting [1] is 14.6 µM [falling, partial curve].
On to `Cc1ccc(Nc2nc(N)nc(CCl)n2)c(C)c1`, for which the cell number change is -3.2%. The AC50 under setting [1] is 0.411 µM [rising, full curve, poor fit].
On to `CN(C)S(=O)(=O)c1ccc(C(=O)NN2C(=O)NC3(CCCCC3)C2=O)cc1`, for which the cell number change was -23.3%.
Take `O=C(Nc1cccc(F)c1)C1CCN(c2nnnn2-c2ccccc2)CC1`: the cell number change is 13.9%. In addition, the AC50 under setting [1] was 1.46 µM [rising, full curve, poor fit].
For `O=C(O)C1CCC(CNS(=O)(=O)c2ccccc2)CC1` (configuration not stated), the cell number change was -18.1%. Besides, the concentration at half-maximal activity (AC50) under setting [1] is 23.1 µM [falling, single point].
As for `Cn1nccc1C(=O)Nc1ccc2c(c1)OCO2`, the cell number change turned out to be 11.4%. Besides, the concentration at half-maximal activity (AC50) under setting [1] is 0.411 µM [rising, full curve].
In the case of `CCCCNC(=O)Cn1cnc2sc(C(=O)OCC)c(C)c2c1=O`, the cell number change is -12.6%. Further, the AC50 under setting [2] is 1.3 µM [falling, partial curve]. The AC50 under setting [1] was 16.4 µM [rising, single point].
`O=C(NC1CCCc2c1cnn2-c1ccccc1F)c1ccccc1N1CCOCC1` (configuration not stated): the cell number change is -49.2%. Besides, the AC50 under setting [2] was 16.4 µM [falling, single point].
As for `CC12CS(=O)(=O)CC1SC(=S)N2Cc1ccccc1` (configuration not stated), the cell number change came to 35%. Moreover, under setting [2], the AC50 is 2.31 µM [rising, full curve]. Further, the concentration at half-maximal activity (AC50) under setting [1] is 32.6 µM [rising, single point].
As to `COc1cccc(NC(=O)c2ccc(S(=O)(=O)N(C)C)cc2)c1`, the cell number change worked out at 15.7%. Besides, under setting [2], the half-maximal activity concentration (AC50) is 0.103 µM [falling, full curve, poor fit]. The concentration at half-maximal activity (AC50) under setting [1] is 0.103 µM [falling, full curve, poor fit].
On to `COC(=O)c1sc(S(=O)(=O)N2CC(C)OC(C)C2)c(C(=O)OC)c1C` (configuration not stated), for which the cell number change worked out at 22.7%. Moreover, the concentration at half-maximal activity (AC50) under setting [1] is 0.0231 µM [rising, full curve].
For `CCCNC(=O)Cn1cnc2sc(C(=O)Nc3cc(OC)c(OC)c(OC)c3)c(C)c2c1=O`, the cell number change was -11.6%.
Consider `CC(NC(=O)c1nn(C)c2c1CS(=O)(=O)c1ccccc1-2)c1ccccc1` (configuration not stated), for which the cell number change came to 13.1%. The half-maximal activity concentration (AC50) under setting [1] was 29.1 µM [rising, single point].
As to `COc1ccc(S(=O)(=O)N(C)CC(=O)NC2CCCC2)cc1Cl`, the cell number change worked out at 131%. For the same compound, under setting [2], the half-maximal activity concentration (AC50) is 13 µM [rising, partial curve]. Under setting [1], the AC50 was 3.26 µM [rising, single point].
With `O=C(CCNS(=O)(=O)c1ccc(Cl)cc1)OCC(=O)N1CCN(C(=O)c2ccco2)CC1`, the cell number change is -15.5%.
The same measure, in the same setting: for `CCC1=Nc2cc(C(=O)NCCN3CCCC3)ccc2Sc2ccccc21` the value was -1.91%.
Consider `CS(=O)(=O)c1ncc(Cl)c(C(=O)Nc2ccc(N3CCOCC3)cc2)n1`, for which the cell number change is -158%. Under setting [2], the AC50 is 29.1 µM [falling, single point]. Under setting [1], the AC50 was 29.1 µM [falling, single point].
For `O=C(COc1ccc(Cl)cc1)NCCSc1ccccc1`, the cell number change is -3.56%. In addition, the AC50 under setting [1] is 0.00461 µM [rising, full curve, poor fit].
Regarding `CCCS(=O)(=O)c1nc(S(=O)(=O)c2ccc(C)cc2)c(N2CCCC2)s1`, the cell number change turned out to be 11.5%. Besides, under setting [1], the AC50 is 6.51 µM [rising, single point].
On to `CC1CCCCC1NC(=O)c1ccco1` (configuration not stated), for which the cell number change was -1.5%. The AC50 under setting [1] is 14.6 µM [rising, partial curve].
As for `CCCCOc1ccc(-c2ncc(C(=O)O)c(C)n2)cc1`, the cell number change was -2.54%.
Take `CCCCn1c(=O)[nH]c(=O)c2c1nc(-c1ccsc1)n2Cc1ccccc1`: the cell number change was -26.3%. Moreover, the AC50 under setting [1] was 18.4 µM [falling, single point].
In the case of `COc1ccc(CCNC(=O)C2CCN(C(=O)c3ccc(C(C)(C)C)cc3)CC2)cc1`, the cell number change was -49.6%. The AC50 under setting [2] was 6.51 µM [falling, partial curve].
Take `Nc1nc2n(n1)C(c1ccccc1Cl)CC(c1ccc(F)cc1)N2` (configuration not stated): the cell number change was -8.39%. Moreover, the AC50 under setting [1] is 0.116 µM [falling, full curve, poor fit].
In the case of `CCN(CC(=O)Nc1sc2c(c1C#N)CCC(C)C2)Cc1nc2ccccc2c(=O)[nH]1` (configuration not stated), the cell number change is 20.9%. Also, the concentration at half-maximal activity (AC50) under setting [1] was 32.6 µM [rising, single point].
